Measurements from the supplement of paper PMC12819154, “High-throughput peptide-centric local stability assay extends protein–ligand identification to membrane proteins, tissues and bacteria” (Nature Structural & Molecular Biology, 2025).
Some of the results follow. Small differences around the control level are noise.

Protein sequences, listed by entry. Tags and fused reporters are not part of them. Lines headed by an entry give the natural chain unless they say otherwise; changes in a name come on top.
UniProt Q99719: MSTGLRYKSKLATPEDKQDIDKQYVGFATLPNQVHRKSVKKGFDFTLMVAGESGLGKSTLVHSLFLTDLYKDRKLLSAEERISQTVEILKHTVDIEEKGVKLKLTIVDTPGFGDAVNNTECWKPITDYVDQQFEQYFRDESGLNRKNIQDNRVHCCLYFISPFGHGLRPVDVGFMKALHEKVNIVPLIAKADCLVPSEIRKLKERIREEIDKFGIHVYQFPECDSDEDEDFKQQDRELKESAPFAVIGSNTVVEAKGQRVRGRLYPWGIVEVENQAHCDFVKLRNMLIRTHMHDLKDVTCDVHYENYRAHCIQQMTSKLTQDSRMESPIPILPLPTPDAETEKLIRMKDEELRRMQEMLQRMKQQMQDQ
UniProt Q99611, whole entry: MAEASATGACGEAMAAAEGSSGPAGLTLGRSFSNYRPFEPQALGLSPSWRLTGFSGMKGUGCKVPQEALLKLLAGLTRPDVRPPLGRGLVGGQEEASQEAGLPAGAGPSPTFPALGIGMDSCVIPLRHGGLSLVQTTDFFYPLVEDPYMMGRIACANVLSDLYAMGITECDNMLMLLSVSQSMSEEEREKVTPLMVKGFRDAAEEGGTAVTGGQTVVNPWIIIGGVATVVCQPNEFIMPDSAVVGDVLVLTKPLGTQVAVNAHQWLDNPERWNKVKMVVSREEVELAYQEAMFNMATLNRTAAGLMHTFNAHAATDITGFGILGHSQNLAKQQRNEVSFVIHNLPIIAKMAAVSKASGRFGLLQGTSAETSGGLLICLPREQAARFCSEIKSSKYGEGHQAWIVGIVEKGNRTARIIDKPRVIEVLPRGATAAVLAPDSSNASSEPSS
UniProt Q9BVR0: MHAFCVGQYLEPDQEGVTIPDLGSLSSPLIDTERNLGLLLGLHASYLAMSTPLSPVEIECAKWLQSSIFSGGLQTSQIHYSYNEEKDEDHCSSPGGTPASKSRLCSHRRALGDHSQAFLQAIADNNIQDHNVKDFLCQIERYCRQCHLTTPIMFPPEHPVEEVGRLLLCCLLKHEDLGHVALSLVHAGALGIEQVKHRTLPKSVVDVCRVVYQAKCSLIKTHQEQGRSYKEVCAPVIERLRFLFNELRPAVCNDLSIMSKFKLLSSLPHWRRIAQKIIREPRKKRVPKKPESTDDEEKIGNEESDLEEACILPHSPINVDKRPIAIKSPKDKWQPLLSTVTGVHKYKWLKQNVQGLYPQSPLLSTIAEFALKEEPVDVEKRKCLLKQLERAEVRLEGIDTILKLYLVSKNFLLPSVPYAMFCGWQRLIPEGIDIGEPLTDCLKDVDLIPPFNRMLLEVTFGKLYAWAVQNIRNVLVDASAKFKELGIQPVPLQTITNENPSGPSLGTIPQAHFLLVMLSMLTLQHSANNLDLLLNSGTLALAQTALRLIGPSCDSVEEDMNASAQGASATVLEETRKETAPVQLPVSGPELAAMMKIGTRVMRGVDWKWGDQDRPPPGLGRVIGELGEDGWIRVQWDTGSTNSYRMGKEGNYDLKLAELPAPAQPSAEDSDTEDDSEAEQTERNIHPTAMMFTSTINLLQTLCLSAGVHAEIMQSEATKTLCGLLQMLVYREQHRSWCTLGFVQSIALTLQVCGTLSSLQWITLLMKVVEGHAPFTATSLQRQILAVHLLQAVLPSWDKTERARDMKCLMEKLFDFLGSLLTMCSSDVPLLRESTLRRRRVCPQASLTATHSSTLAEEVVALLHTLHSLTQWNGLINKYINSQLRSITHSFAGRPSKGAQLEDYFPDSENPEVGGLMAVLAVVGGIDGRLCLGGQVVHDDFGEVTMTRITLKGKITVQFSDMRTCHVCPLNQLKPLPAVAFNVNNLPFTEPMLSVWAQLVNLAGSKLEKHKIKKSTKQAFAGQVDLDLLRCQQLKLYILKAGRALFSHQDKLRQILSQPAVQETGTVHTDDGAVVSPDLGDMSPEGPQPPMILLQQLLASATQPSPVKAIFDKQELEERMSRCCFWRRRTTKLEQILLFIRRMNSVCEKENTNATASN
UniProt Q9BRY0: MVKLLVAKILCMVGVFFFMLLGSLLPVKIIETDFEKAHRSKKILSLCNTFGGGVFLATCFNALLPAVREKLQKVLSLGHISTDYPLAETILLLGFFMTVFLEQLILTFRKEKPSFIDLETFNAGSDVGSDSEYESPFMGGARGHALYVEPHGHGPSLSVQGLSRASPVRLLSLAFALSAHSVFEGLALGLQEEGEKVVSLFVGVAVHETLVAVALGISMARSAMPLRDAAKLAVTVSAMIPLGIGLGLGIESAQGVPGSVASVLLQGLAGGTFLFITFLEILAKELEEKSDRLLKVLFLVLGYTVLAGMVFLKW
UniProt Q9BU02: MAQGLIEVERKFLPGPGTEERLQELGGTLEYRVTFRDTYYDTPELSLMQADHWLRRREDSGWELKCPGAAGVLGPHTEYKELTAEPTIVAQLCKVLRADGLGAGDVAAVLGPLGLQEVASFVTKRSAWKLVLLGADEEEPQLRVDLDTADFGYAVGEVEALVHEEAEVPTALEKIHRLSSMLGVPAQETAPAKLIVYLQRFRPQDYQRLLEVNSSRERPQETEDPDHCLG
UniProt Q99797: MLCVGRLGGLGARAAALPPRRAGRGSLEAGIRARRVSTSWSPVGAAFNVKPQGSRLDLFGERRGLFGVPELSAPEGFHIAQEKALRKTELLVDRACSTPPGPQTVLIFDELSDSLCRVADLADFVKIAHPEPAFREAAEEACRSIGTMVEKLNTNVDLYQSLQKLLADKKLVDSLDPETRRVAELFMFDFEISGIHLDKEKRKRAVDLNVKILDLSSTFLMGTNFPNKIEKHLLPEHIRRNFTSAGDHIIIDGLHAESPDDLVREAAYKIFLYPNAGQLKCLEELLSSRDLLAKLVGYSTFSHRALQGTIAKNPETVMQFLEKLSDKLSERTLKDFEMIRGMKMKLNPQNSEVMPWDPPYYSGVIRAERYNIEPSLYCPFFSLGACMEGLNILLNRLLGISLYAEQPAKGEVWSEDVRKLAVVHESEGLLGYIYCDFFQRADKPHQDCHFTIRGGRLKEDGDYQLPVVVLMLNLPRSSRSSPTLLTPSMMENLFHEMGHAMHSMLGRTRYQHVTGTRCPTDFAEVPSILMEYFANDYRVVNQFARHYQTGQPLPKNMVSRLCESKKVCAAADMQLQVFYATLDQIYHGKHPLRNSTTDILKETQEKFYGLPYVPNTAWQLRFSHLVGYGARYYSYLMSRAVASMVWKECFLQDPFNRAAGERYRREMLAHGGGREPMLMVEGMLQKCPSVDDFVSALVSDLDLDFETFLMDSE
UniProt Q9BRJ6: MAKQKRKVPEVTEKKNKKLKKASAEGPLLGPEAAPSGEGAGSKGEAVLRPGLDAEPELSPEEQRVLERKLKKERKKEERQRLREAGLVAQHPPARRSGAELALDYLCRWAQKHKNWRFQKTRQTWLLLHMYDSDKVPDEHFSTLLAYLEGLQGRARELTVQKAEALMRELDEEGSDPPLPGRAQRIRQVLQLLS
UniProt Q9BU20: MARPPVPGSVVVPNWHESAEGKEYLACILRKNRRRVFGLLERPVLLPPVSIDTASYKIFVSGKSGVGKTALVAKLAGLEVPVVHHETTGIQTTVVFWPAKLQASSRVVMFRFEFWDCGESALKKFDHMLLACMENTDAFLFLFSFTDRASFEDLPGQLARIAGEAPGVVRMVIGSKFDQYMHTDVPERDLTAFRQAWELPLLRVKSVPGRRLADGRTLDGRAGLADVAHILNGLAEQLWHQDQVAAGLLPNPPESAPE
UniProt Q9BQA5: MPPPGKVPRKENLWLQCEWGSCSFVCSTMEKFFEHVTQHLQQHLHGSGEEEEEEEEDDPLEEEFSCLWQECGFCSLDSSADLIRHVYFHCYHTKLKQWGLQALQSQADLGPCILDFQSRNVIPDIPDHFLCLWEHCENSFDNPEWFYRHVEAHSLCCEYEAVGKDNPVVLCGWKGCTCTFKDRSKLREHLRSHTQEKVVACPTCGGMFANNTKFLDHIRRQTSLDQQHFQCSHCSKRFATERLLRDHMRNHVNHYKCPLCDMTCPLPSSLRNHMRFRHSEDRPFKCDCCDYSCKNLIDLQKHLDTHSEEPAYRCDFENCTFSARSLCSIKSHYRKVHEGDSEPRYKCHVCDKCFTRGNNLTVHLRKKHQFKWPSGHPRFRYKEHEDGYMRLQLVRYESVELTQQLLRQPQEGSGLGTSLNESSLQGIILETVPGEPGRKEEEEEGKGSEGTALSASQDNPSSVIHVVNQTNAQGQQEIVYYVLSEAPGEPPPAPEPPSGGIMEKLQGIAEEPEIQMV
UniProt Q9BRT9, whole entry: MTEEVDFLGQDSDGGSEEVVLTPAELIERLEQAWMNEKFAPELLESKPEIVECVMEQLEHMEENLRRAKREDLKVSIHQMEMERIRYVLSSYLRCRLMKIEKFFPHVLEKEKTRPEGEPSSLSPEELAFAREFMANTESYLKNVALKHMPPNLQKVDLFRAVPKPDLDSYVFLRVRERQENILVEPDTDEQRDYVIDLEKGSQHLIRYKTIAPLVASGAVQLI
UniProt Q99871: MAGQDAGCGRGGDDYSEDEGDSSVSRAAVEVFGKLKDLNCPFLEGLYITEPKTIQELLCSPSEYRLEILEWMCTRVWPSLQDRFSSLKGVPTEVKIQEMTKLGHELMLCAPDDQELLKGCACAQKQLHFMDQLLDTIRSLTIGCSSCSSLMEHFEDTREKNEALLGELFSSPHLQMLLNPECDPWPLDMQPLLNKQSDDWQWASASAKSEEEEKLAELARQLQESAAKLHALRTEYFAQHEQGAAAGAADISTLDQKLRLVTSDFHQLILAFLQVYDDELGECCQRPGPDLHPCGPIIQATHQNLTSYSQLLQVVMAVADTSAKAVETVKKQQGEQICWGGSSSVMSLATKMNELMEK
UniProt Q9BQ67, whole entry: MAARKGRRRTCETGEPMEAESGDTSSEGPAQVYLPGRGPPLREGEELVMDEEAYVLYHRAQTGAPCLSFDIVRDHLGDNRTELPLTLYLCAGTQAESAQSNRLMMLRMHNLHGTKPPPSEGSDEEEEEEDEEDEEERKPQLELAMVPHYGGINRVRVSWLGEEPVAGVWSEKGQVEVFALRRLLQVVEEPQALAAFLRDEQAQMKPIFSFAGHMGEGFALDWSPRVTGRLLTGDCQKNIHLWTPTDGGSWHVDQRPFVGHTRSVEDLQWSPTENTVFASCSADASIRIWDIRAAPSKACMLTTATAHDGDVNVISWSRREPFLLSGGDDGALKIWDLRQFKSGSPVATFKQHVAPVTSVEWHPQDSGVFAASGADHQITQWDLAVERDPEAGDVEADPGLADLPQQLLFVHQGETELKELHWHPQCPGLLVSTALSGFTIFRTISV
UniProt Q9BWC9: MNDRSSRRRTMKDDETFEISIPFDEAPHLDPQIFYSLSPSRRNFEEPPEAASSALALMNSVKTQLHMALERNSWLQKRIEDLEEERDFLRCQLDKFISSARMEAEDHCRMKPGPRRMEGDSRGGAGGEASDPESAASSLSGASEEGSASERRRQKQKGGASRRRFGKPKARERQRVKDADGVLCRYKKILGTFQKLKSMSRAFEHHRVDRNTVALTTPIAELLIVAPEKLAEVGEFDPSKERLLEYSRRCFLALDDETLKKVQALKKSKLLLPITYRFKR
UniProt Q9BUX1: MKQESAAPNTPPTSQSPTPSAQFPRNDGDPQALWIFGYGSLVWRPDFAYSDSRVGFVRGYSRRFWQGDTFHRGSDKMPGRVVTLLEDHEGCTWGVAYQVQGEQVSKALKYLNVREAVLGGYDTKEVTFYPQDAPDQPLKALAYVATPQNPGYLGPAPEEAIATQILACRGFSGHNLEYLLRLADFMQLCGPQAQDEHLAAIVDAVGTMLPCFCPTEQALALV
UniProt Q9BQ75: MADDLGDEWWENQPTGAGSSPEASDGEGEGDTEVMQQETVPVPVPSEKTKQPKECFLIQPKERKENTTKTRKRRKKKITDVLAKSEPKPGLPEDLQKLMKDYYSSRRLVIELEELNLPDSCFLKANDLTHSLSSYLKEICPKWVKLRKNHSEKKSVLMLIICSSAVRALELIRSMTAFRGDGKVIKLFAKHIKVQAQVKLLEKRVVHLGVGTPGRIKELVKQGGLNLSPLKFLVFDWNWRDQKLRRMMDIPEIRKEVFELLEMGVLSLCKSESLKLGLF
UniProt Q9BUE6: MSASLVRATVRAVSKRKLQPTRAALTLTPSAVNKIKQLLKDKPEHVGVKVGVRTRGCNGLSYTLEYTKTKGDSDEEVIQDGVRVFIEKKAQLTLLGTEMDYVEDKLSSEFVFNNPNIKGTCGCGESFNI
UniProt Q9BWD1: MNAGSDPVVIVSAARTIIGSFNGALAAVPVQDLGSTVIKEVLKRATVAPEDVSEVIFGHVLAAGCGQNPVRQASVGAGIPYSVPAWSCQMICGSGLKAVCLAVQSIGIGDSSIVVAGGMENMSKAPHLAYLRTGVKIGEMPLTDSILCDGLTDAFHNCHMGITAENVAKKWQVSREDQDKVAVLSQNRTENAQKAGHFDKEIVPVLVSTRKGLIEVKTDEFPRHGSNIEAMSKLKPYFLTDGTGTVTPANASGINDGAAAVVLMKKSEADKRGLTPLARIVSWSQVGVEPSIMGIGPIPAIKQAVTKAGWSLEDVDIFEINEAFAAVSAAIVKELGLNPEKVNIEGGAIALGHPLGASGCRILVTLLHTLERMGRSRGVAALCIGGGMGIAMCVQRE

Each target was assayed with CN[C@@H]1C[C@H]2O[C@@](C)([C@@H]1OC)n1c3ccccc3c3c4c(c5c6ccccc6n2c5c31)C(=O)NC4 [staurosporine] (assay: log2 fold change of tryptic peptide abundance, ligand vs vehicle (limited proteolysis) (log2 ratio); higher = more trypsin-susceptible (destabilized)). Details: ligand concentration: 20 uM; sample: K562 cleared lysate; digestion: 4 min, 22 C (HT-PELSA RT4min, Orbitrap Astral).
Target “SEPTIN5 (peptide sequence: QYVGFATLPNQVHRK, peptide start residue: 23) (UniProt Q99719)” has a log2 fold change of -0.121.
Target “GNL3 (peptide sequence: VIEASDVVLEVLDARDPLGCR, peptide start residue: 137) (UniProt Q9BVP2)” has a log2 fold change of 0.377.
Work on “GDF15 (peptide sequence: AANMHAQIK, peptide start residue: 250) (UniProt Q99988)” yielded a log2 fold change of 0.524.
In the case of “UniProt Q9BSJ8 (peptide sequence: IHVLEAQDLIAKDRFLGGLVK, peptide start residue: 651)”, the log2 fold change is reported as 0.764.
With “UniProt Q9BUU2 (peptide sequence: AASDSNPAGPLR, peptide start residue: 130)” the log2 fold change was -0.655.
“SEPHS2 (peptide sequence: VPQEALLK, peptide start residue: 64) (UniProt Q99611)” was tested, and the log2 fold change was 0.0455.
Work on “HDHD3 (peptide sequence: AHGLEVEPSALEQGFR, peptide start residue: 35) (UniProt Q9BSH5)” yielded a log2 fold change of 0.671.
“UniProt Q9BVR0 (peptide sequence: EVCAPVIER, peptide start residue: 1504)” was tested, and the log2 fold change was 0.321.
With “SLC39A3 (peptide sequence: GHALYVEPHGHGPSLSVQGLSR, peptide start residue: 143) (UniProt Q9BRY0)” the log2 fold change was -0.0262.
For “THTPA (peptide sequence: LLEVNSSR, peptide start residue: 209) (UniProt Q9BU02)”, the log2 fold change was 0.163.
With “MIPEP (peptide sequence: HYQTGQPLPK, peptide start residue: 546) (UniProt Q99797)” the log2 fold change was -0.524.
“LPIN3 (peptide sequence: GLNPATLSGGIDVLVVK, peptide start residue: 21) (UniProt Q9BQK8)” was tested, and the log2 fold change was 0.607.
Work on “POLR3C (peptide sequence: QQLETLKR, peptide start residue: 497) (UniProt Q9BUI4)” yielded a log2 fold change of 0.427.
Target “C7orf50 (peptide sequence: EAGLVAQHPPARR, peptide start residue: 84) (UniProt Q9BRJ6)” has a log2 fold change of 0.346.
For “RBBP8 (peptide sequence: AFVEPYFKGDER, peptide start residue: 775) (UniProt Q99708)”, the log2 fold change was -0.245.
“RNF126 (peptide sequence: DDYALGER, peptide start residue: 234) (UniProt Q9BV68)” gave a log2 fold change of -0.503.
“CPLANE2 (peptide sequence: IAGEAPGVVR, peptide start residue: 161) (UniProt Q9BU20)” showed a log2 fold change of 0.268.
With “HINFP (peptide sequence: YKEHEDGYMR, peptide start residue: 381) (UniProt Q9BQA5)” the log2 fold change was -1.16.
“UniProt Q9BTY7 (peptide sequence: ALVNLAADPGLHETLLAADPGLPAR, peptide start residue: 84)” was tested, and the log2 fold change was 0.155.
“GINS4 (peptide sequence: IEKFFPHVLEKEK, peptide start residue: 100) (UniProt Q9BRT9)” gave a log2 fold change of -0.89.
Work on “PTDSS2 (peptide sequence: DAGGPRPESPVPAGR, peptide start residue: 8) (UniProt Q9BVG9)” yielded a log2 fold change of -0.00409.
With “HAUS7 (peptide sequence: QLHFMDQLLDTIR, peptide start residue: 126) (UniProt Q99871)” the log2 fold change was 0.391.
Target “GRWD1 (peptide sequence: LLQVVEEPQALAAFLR, peptide start residue: 183) (UniProt Q9BQ67)” has a log2 fold change of -0.381.
In the case of “THUMPD3 (peptide sequence: VDTVWVNVGGLR, peptide start residue: 465) (UniProt Q9BV44)”, the log2 fold change is reported as -0.168.
“UniProt Q9BWC9 (peptide sequence: VKDADGVLCR, peptide start residue: 176)” showed a log2 fold change of 0.396.
“NUDT9 (peptide sequence: LYASHSQFIK, peptide start residue: 320) (UniProt Q9BW91)” showed a log2 fold change of -0.188.
“CHAC1 (peptide sequence: GFSGHNLEYLLR, peptide start residue: 170) (UniProt Q9BUX1)” showed a log2 fold change of 0.102.
Work on “UniProt Q9BQ75 (peptide sequence: TKQPKECFLIQPK, peptide start residue: 49)” yielded a log2 fold change of 0.403.
Work on “RSRP1 (peptide sequence: TVYPEEHSR, peptide start residue: 145) (UniProt Q9BUV0)” yielded a log2 fold change of -0.412.
Work on “HSD17B10 (peptide sequence: VLDVNLMGTFNVIR, peptide start residue: 117) (UniProt Q99714)” yielded a log2 fold change of -0.734.
With “UniProt Q9BQ87 (peptide sequence: YLASGSFDK, peptide start residue: 456)” the log2 fold change was -0.263.
Target “ISCA1 (peptide sequence: AALTLTPSAVNK, peptide start residue: 23) (UniProt Q9BUE6)” has a log2 fold change of 0.332.
Target “TRMT61B (peptide sequence: ELEDSSGDQGR, peptide start residue: 101) (UniProt Q9BVS5)” has a log2 fold change of 0.162.
“EYA3 (peptide sequence: QHNMPFWR, peptide start residue: 547) (UniProt Q99504)” gave a log2 fold change of 0.357.
Work on “ACAT2 (peptide sequence: EIVPVLVSTR, peptide start residue: 201) (UniProt Q9BWD1)” yielded a log2 fold change of -0.155.
In the case of “GPATCH1 (peptide sequence: DNVHGLAYK, peptide start residue: 231) (UniProt Q9BRR8)”, the log2 fold change is reported as 0.556.
